In patent US11279678B2 (SHANGHAI ECUST BIOMEDICINE CO., LTD., priority 2017, dated 2022):
Some of these results come from one statement about several compounds together.

System: gastric cancer MGC-803 transplanted tumor
Experiment: Antitumor rate of oral administration in mice with MGC-803 transplanted tumor
Type: in vivo
Settings: 50 mg/kg intragastric, d0-d12 every 2 days, 7 times, tumor weight
Protocol: Antitumor rate of oral administration of the compound towards MGC-803 mice with transplanted tumor
After 1 week of adaptation, the mice were inoculated with gastric cancer MGC-803 tumor tissue subcutaneously. After the tumor grew for 100-300 mm^3, the animals were randomly grouped. For the drug group, each group of each compound had 6 mice, and 12 mice were in the control group. The intragastric administration was employed and the dosage of Ii, Ij, Ik and Il was 25 and 50 mg/kg. The positive control was CA4, the administration time was d0, d2, d4, d6, d8, d10, d12 days, 7 times in total. The tumor size was measured 3 times per week, together with mice weight. The mice were executed 14 days after inoculation and the tumor mass was taken and measured for its weight. The tumor inhibition rate was calculated as tumor weight inhibition rate, and the formula is tumor weight inhibition rate %=(1-treatment group average tumor weight/control group average tumor weight)×100%.

| SMILES | Tumor inhibition rate (%) (listed as ik) | Tumor inhibition rate (%) (listed as il) |
| --- | --- | --- |
| COc1ccc(/C=C\c2cc(OC)c(OC)c(OC)c2)cc1OC(=O)CCn1cc(F)c(=O)[nH]c1=O [Compound Ik, (Z)-5-(3,4,5-trimethoxystyryl)-2-methoxyphenyl-3-(5-fluoro-2,4-dioxo-3,4-dihydropyrimidin-1(2H)-yl)propanoate] | over 80% | – |
| COc1ccc(CCc2cc(OC)c(OC)c(OC)c2)cc1OC(=O)CCn1cc(F)c(=O)[nH]c1=O [Compound Il, 5-(3,4,5-trimethoxyphenethyl)-2-methoxyphenyl-3-(5-fluoro-2,4-dioxo-3,4-dihydropyrimidin-1(2H)-yl)propanoate] | – | over 80% |
